Results: PMC11371196

The chains behind the UniProt entries cited, without tags or fusion partners. Where a name states a change or a piece, a line headed by the entry shows the natural chain unless it says otherwise.
UniProt O80837: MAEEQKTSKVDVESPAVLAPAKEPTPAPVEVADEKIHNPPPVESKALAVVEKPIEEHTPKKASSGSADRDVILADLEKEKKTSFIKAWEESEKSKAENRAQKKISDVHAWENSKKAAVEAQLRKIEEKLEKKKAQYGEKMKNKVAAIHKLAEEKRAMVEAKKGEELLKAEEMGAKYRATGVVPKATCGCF
UniProt Q9FX32: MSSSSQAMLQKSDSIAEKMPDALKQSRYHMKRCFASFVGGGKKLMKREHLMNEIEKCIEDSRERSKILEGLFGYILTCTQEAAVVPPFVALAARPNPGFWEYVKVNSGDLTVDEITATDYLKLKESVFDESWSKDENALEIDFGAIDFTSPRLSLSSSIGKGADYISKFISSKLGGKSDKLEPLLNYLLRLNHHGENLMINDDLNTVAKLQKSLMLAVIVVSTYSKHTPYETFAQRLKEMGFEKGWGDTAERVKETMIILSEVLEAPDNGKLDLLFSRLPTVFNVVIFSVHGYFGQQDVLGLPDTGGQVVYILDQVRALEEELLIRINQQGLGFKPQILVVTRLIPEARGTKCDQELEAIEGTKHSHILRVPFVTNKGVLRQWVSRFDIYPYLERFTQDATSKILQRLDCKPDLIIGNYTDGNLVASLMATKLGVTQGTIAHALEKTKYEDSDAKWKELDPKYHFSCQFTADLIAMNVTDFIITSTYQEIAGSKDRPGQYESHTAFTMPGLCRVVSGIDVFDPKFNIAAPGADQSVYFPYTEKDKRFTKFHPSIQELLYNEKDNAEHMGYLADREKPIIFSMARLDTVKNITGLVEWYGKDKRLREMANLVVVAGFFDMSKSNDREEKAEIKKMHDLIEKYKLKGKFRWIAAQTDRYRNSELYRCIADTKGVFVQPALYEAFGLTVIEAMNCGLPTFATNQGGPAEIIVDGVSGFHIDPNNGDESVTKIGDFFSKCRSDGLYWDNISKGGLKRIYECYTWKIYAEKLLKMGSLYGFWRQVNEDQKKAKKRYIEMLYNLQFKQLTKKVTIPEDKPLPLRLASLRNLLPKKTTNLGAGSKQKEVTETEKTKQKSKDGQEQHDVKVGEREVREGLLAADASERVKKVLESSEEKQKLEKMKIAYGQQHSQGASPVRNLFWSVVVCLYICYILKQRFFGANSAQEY
UniProt Q9M2D8: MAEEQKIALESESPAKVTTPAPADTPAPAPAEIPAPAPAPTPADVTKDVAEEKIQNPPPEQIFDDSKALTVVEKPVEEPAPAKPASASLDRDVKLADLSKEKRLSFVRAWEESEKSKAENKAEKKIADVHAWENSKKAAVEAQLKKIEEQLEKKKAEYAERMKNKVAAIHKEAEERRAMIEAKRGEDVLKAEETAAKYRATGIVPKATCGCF

Columns and labels:
Test in all cases: proximity labelling; TurboID fusions under ProUBQ10 in 14-day-old Arabidopsis seedlings, 50 μM biotin for 3 h at room temperature; biotinylated proteins enriched on streptavidin beads, TMT LC-MS/MS; compared with wild-type Col-0 and between baits
[1] = molecular target: T1, PDLP5-TurboID-3xFlag (Arabidopsis thaliana) (UniProt Q8GUJ2)
T1 sequence: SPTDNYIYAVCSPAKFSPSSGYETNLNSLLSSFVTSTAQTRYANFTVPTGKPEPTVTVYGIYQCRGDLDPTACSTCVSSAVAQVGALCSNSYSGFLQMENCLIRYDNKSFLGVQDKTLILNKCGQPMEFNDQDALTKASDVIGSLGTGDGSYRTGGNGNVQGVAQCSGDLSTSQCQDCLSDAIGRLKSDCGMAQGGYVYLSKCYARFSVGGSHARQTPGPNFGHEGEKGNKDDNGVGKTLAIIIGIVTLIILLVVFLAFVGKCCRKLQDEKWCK

[2] = molecular target: T2, PDLP6-TurboID-3xFlag (Arabidopsis thaliana) (UniProt Q9ZU94)
T2 sequence: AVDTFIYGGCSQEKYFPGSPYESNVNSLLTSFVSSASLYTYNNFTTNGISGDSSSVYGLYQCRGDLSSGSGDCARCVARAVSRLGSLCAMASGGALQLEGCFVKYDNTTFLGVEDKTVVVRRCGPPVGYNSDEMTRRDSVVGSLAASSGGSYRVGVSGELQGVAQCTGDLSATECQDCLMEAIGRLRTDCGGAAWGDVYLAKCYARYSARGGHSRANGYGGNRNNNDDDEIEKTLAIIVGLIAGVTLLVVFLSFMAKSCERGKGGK

[3] = molecular target: T3, 3xFlag-TurboID-MCTP3 (Arabidopsis thaliana) (UniProt Q9M2R0)
T3 sequence: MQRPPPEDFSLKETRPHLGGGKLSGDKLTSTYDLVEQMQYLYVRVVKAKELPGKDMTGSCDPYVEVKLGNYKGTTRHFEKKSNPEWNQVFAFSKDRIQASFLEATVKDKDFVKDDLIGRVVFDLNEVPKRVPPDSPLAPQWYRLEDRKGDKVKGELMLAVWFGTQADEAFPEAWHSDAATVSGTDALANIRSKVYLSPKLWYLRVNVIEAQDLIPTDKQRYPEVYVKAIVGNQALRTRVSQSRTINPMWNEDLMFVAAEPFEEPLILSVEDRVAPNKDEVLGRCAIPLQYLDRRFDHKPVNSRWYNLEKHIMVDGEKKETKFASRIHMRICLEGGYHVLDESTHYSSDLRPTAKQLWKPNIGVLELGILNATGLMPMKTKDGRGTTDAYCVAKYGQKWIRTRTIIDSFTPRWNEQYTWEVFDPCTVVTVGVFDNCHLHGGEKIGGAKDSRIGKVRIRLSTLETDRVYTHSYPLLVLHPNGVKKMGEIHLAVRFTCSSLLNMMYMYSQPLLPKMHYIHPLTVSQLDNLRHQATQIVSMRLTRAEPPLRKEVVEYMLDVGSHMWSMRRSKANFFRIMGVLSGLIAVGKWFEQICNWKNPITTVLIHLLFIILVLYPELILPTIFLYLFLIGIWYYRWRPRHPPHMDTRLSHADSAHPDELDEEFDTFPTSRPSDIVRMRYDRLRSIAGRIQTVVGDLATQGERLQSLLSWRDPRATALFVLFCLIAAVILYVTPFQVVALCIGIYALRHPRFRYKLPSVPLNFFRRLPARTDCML

Row | binding [1] | binding [2] | binding [3] | Substance
1 | binds | binds | – | REM1.3 (from UniProt O80837)
2 | binds | binds | binds | SUCROSE SYNTHASE 6 (from UniProt Q9FX32 1-942) (enzyme)
3 | binds | binds | – | REM1.2 (from UniProt Q9M2D8)

Results are given in words; binding and its absence hold for the method and conditions named. Binding seen in cells or lysates may run through a third protein. Here binding means that the protein was enriched with, or labelled near, the bait; the list need not be complete. Tags and fused reporters may be left off the sequences shown.
